The results in this text go back to PMC8905163.

Results are given in words; binding and its absence hold for the method and conditions named. Binding seen in cells or lysates may run through a third protein. For some assays here: A result given as binding can be weak or reduced; the word gives no strength. Where a sequence is shown, tags or fusion partners need not be part of it.

Experiment [1] concerns the target HA-Sd_N (N-terminal half of Scalloped) (Drosophila). Put plainly: co-IP; S2R+ cells co-transfected with pUAST plasmids and Actin-GAL4; lysed in RIPA buffer with PMSF 48 h after transfection; standard co-immunoprecipitation; which protein was precipitated not given.
The target of experiment [2] is HA-Sd_C (C-terminal part of Scalloped) (Drosophila). Described as above.

B1: Myc-Sna (Snail), expressed in S2R+ cells (protein, UniProt P08044 1-390)
chain: MAANYKSCPLKKRPIVFVEERLPQTEALALTKDSQFAQDQPQDLSLKRGRDEETQDYQQPEPKRDYVLNLSKTPERNSSSSSNSCLLSPPVEAQDYLPTEIHMRGLTAGTTGYTTATPTTINPFQSAFVMAAGCNPISALWSSYQPHLAAFPSPASSMASPQSVYSYQQMTPPSSPGSDLETGSEPEDLSVRNDIPLPALFHLFDEAKSSSSGASVSSSSGYSYTPAMSASSASVAANHAKNYRFKCDECQKMYSTSMGLSKHRQFHCPAAECNQEKKTHSCEECGKLYTTIGALKMHIRTHTLPCKCPICGKAFSRPWLLQGHIRTHTGEKPFQCPDCPRSFADRSNLRAHQQTHVDVKKYACQVCHKSFSRMSLLNKHSSSNCTITIA
With B1, the binding result in experiment [1] was “binds”; in experiment [2] it was “no binding”.
